{
  "sequences": {"note": "Sequences of proteins named here, by UniProt entry; tags and fusion partners are left off. Residues count along the entry.", "UniProt P00750, residues 36-562": "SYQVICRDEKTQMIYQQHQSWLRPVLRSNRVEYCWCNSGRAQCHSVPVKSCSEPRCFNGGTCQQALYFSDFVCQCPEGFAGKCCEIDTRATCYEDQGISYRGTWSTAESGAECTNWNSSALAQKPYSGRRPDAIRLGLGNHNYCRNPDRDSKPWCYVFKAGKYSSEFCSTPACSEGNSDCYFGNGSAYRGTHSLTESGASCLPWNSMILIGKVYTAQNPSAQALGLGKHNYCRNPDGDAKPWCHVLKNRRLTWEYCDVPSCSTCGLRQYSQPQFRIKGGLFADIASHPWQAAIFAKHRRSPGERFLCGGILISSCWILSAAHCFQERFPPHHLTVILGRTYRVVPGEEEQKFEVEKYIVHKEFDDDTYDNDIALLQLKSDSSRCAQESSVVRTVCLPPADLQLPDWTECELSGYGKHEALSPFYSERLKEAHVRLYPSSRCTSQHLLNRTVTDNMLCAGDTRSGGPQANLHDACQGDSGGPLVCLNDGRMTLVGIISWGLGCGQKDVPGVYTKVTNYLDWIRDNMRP"},
  "source": "patent US20020076728A1",
  "about": "“Engineering affinity ligands for macromolecules” (priority 1997, published 2002)",
  "note": "Results are given in words; binding and its absence hold for the method and conditions named. Some results given as binding are weak or reduced against the parent protein; the word gives no strength.",
  "data": [
    {"molecular_target": "recombinant human tissue-type plasminogen activator (human) (UniProt P00750)", "assay": "phage selection on tPA-agarose beads, bound at pH 7, eluted at pH 2 after a pH 5 elution", "values": [
      {"binder": "RWCPKSTLGCMKDSDCLAECVCLEHGYCG (designed binder)", "note": "[CMTI-I analogue 221 (phage isolate)]", "binding": "binds"},
      {"binder": "RWCPKSTLGCMKDSDCLAECVCLEHGYCG (designed binder)", "note": "[CMTI-I analogue 222 (phage isolate)]", "binding": "binds"},
      {"binder": "RWCPKYTLECMKDSDCLAECVCLEHGYCG (designed binder)", "note": "[CMTI-I analogue 223 (phage isolate)]", "binding": "binds"},
      {"binder": "RWCPRSSLECMKDSDCLAECVCLEHGYCG (designed binder)", "note": "[CMTI-I analogue 224 (phage isolate)]", "binding": "binds"},
      {"binder": "RWCPKYTLECMKDSDCLAECVCLEHGYCG (designed binder)", "note": "[CMTI-I analogue 225 (phage isolate)]", "binding": "binds"},
      {"binder": "RWCPRSNLECMKDSDCLAECVCLEHGYCG (designed binder)", "note": "[CMTI-I analogue 226 (phage isolate)]", "binding": "binds"},
      {"binder": "RWCPRSNLECMKDSDCLAECVCLEHGYCG (designed binder)", "note": "[CMTI-I analogue 227 (phage isolate)]", "binding": "binds"},
      {"binder": "RWCPKYTLECMKDSDCLAECVCLEHGYCG (designed binder)", "note": "[CMTI-I analogue 228 (phage isolate)]", "binding": "binds"},
      {"binder": "RWCPKYTLECMKDSDCLAECVCLEHGYCG (designed binder)", "note": "[CMTI-I analogue 229 (phage isolate)]", "binding": "binds"},
      {"binder": "RWCPKYTLECMKDSDCLAECVCLEHGYCG (designed binder)", "note": "[CMTI-I analogue 230 (phage isolate)]", "binding": "binds"},
      {"binder": "RWCPRSTLECMKDSDCLAECVCLEHGYCG (designed binder)", "note": "[CMTI-I analogue 231 (phage isolate)]", "binding": "binds"},
      {"binder": "RWCPKTSLGCMKDSDCLAECVCLEHGYCG (designed binder)", "note": "[CMTI-I analogue 232 (phage isolate)]", "binding": "binds"},
      {"binder": "RWCPKYTLECMKDSDCLAECVCLEHGYCG (designed binder)", "note": "[CMTI-I analogue 233 (phage isolate)]", "binding": "binds"},
      {"binder": "RWCPRSSLECMKDSDCLAECVCLEHGYCG (designed binder)", "note": "[CMTI-I analogue 234 (phage isolate)]", "binding": "binds"},
      {"binder": "RWCPKSTLGCMKDSDCLAECVCLEHGYCG (designed binder)", "note": "[CMTI-I analogue 235 (phage isolate)]", "binding": "binds"},
      {"binder": "RWCPRSSLECMKDSDCLAECVCLEHGYCG (designed binder)", "note": "[CMTI-I analogue 236 (phage isolate)]", "binding": "binds"},
      {"binder": "RWCPRSNLECMKDSDCLAECVCLEHGYCG (designed binder)", "note": "[CMTI-I analogue 237 (phage isolate)]", "binding": "binds"},
      {"binder": "RWCPRSNLECMKDSDCLAECVCLEHGYCG (designed binder)", "note": "[CMTI-I analogue 238 (phage isolate)]", "binding": "binds"}
    ]},
    {"molecular_target": "recombinant human tissue-type plasminogen activator (human) (UniProt P00750)", "assay": "clonal phage on tPA-agarose beads, release at pH 5 then pH 2", "values": [
      {"binder": "RWCPKTSLGCMKDSDCLAECVCLEHGYCG (designed binder)", "note": "[CMTI-I analogue 101 (phage isolate)]", "binding": "binds"},
      {"binder": "RWCPKSSMGCKKDSDCLAECVCLEHGYCG (designed binder)", "note": "[CMTI-I analogue 110 (phage isolate)]", "binding": "binds"},
      {"binder": "RWCPRTVQECMKDSDCLAECVCLEHGYCG (designed binder)", "note": "[CMTI-I analogue 111 (phage isolate)]", "binding": "binds"},
      {"binder": "RWCPTAPLECMKDSDCLAECVCLEHGYCG (designed binder)", "note": "[CMTI-I analogue 112 (phage isolate)]", "binding": "binds"},
      {"binder": "RLCPKTDLGCMKDSDCLAECVCLEHGYCG (designed binder)", "note": "[CMTI-I analogue 113 (phage isolate)]", "binding": "binds"},
      {"binder": "RWCPKSALDCKKDSDCLAECVCLEHGYCG (designed binder)", "note": "[CMTI-I analogue 114 (phage isolate)]", "binding": "binds"},
      {"binder": "RWCTKTSRECMKDSDCLAECVCLEHGYCG (designed binder)", "note": "[CMTI-I analogue 115 (phage isolate)]", "binding": "binds"},
      {"binder": "RWCIRTDLGCMKDSDCLAECVCLEHGYCG (designed binder)", "note": "[CMTI-I analogue 116 (phage isolate)]", "binding": "binds"},
      {"binder": "RWCPKTSLGCMKDSDCLAECVCLEHGYCG (designed binder)", "note": "[CMTI-I analogue 117 (phage isolate)]", "binding": "binds"},
      {"binder": "RWCPRTVRRCMKDSDCLAECVCLEHGYCG (designed binder)", "note": "[CMTI-I analogue 118 (phage isolate)]", "binding": "binds"},
      {"binder": "RWCPKTHKECMKDSDCLAECVCLEHGYCG (designed binder)", "note": "[CMTI-I analogue 119 (phage isolate)]", "binding": "binds"},
      {"binder": "RLCPKTYLGCMKDSDCLAECVCLEHGYCG (designed binder)", "note": "[CMTI-I analogue 102 (phage isolate)]", "binding": "binds"},
      {"binder": "RWCPKTSLECMKDSDCLAECVCLEHGYCG (designed binder)", "note": "[CMTI-I analogue 120 (phage isolate)]", "binding": "binds"},
      {"binder": "RWCSTYSLGCMKDSDCLAECVCLEHGYCG (designed binder)", "note": "[CMTI-I analogue 103 (phage isolate)]", "binding": "binds"},
      {"binder": "RWCPKTSLGCMKDSDCLAECVCLEHGYCG (designed binder)", "note": "[CMTI-I analogue 232 (phage isolate)]", "binding": "binds"},
      {"binder": "RWCSTYSLGCMKDSDCLAECVCLEHGYCG (designed binder)", "note": "[CMTI-I analogue 104 (phage isolate)]", "binding": "binds"},
      {"binder": "RLCPKTSLECMKDSDCLAECVCLEHGYCG (designed binder)", "note": "[CMTI-I analogue 105 (phage isolate)]", "binding": "binds"},
      {"binder": "RWCSTYSLGCMKDSDCLAECVCLEHGYCG (designed binder)", "note": "[CMTI-I analogue 106 (phage isolate)]", "binding": "binds"},
      {"binder": "RLCPKTSLECMKDSDCLAECVCLEHGYCG (designed binder)", "note": "[CMTI-I analogue 107 (phage isolate)]", "binding": "binds"},
      {"binder": "RWCSKSSLECMKDSDCLAECVCLEHGYCG (designed binder)", "note": "[CMTI-I analogue 108 (phage isolate)]", "binding": "binds"},
      {"binder": "RLCPKTDLGCMKDSDCLAECVCLEHGYCG (designed binder)", "note": "[CMTI-I analogue 109 (phage isolate)]", "binding": "binds"}
    ]}
  ]
}
